Measurements from publication PMC6997074.
No constants are given. Whether binding was seen depends on the method and setting. In cells and extracts the contact can be indirect. These calls come from enrichment with a bait or labelling near it, and not all partners need be listed.

The chains behind the UniProt entries cited, without tags or fusion partners.
UniProt P48431: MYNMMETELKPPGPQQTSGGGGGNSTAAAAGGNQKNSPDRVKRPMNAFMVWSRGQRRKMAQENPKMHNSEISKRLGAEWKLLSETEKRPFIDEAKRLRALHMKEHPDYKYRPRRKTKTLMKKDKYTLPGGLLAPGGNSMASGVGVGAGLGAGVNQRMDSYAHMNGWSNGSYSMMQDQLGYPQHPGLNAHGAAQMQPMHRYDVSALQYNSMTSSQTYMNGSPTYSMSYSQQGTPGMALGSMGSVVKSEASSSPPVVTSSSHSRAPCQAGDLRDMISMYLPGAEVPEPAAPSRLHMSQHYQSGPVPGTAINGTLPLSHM

Molecular target: Epidermal growth factor receptor (human (endogenous in CAL-27)) (UniProt P00533)
Assay: affinity purification with mass spectrometry; CAL-27 cells treated with EGF (100 ng/mL) for 30 min; whole cell lysates immunoprecipitated with an anti-EGFR antibody (Pierce CO-IP Kit); SDS-PAGE, bands cut, LC-MS/MS

- binding: binds
Substance: SOX2 (from UniProt P48431 1-317)
